{
  "source": "patent US12569482B2",
  "about": "“Methods and compositions for treating idiopathic pulmonary fibrosis” (priority 2018, dated 2026)",
  "key": {"[1]": {"details": "cited from earlier work"}, "[2]": {"test_system": "bleomycin-induced lung fibrosis", "assay": "Bleomycin-induced lung fibrosis mouse study with pirfenidone and nintedanib as positive controls", "type": "in vivo"}, "[3]": {"test_system": "bleomycin-induced pulmonary fibrosis", "assay": "Bleomycin mouse model of pulmonary fibrosis, Example 3 (itraconazole inhalation, oral nintedanib)", "type": "in vivo, ICR mice", "details": "for collagen deposition in the lung tissues (Masson's staining IOD): p<0.01~0.001", "experimental": "Iodine was used to disinfect the neck hair and skin. Later, the neck skin was cut to expose the trachea. 50 μL of PBS or bleomycin hydrochloride (Hisun Pfizer pharmaceutical Co., LTD, 17001711) in 0.9% sodium chloride solution ([…], i.e., […]) was quickly sprayed as mist into the trachea of mice from the Control Group or the other group with a high pressure syringe connected to a spraying nozzle. At the end, the skin was sutured and disinfected, and the mice were returned to the cages for recovery. On Day 5, the mice treated with bleomycin were divided into six groups at random (referred to as Group 2-7). […] For itraconazole inhalation, each mouse was placed in a 16×13×9 (length×width×height in cm) cabinet. Itraconazole preparation of 5, 15 or 50 mg/mL was sprayed into the cabinet with a compressed nebulizer. [table] Twenty-four hours after the last drug administration, the mice were sacrificed by dislocation of cervical vertebra. The trachea was isolated and intubated. The upper lobe of the left lung was ligated. […] The total number of leukocytes in the BALF was counted. The BALF was centrifuged at 2000 rpm/min for 10 min at 4° C. The supernatant was collected and stored at -80° C. for cytokine measurement, and the deposit was smeared on glass slides. After air drying at room temperature, the slides were subjected to Wright's-Giemsa staining. The number of neutrophils, lymphocytes and macrophages were counted under a microscope from a total of 200 cells for each slide. The upper left lung tissues were used for measuring the level of hydroxyproline, and the lower part was fixed in formalin for H&E staining and Masson's staining. The level of hydroxyproline in the lung tissues was measured using a Hydroxyproline Assay kit (Nanjing JianCheng Bioengineering Institute). The level of TGF-β1 in 100 μL BALF was determined using a mouse TGF-β1 ELISA kit (Beijing 4A Biotech Co., LTD), and the level of type I collagen (Col I) in 100 μL BALF was determined using a mouse Collagen Type I ELISA kit (CUSABIO BIOTEH). […] Then, the lung tissues were sectioned into 4 μm-thick sections for H&E staining and Masson's staining. H&E staining was used to observe the alveolar hyperemia, the infiltration or aggregation of neutrophils in the alveolar space or the vascular wall, and the thickening of alveolar septum or the formation of hyaline membranes. The degree of fibrosis in the lesions with H&E staining was observed under microscope and scored using a semi-quantitative Ashcroft scoring criteria below. Grade 0: Normal tracheal bronchoalveolar structures; Grade 1: Minimal fibrous thickening of alveolar or bronchiolar walls; Grade 3: Moderate thickening of walls without obvious damage to lung architecture; Grade 5: Increased fibrosis with definite damage to lung structure and formation of fibrous bands or small fibrous masses; Grade 7: Severe distortion of structure and large fibrous areas, with honeycomb lung placed in this category; Grade 8: Total fibrous obliteration. The severity of fibrosis between two odd numbers was considered as the corresponding even number. On the other hand, IOD value of positive Masson's staining site was measured by Image pro software for analysis. The data were tested for the homogeneity of variance. If the variance was homogenous (p>0.05), a single factor variance analysis was performed. The Dunnet test was performed for the differences between each dose group and the control group. If the variance was heterogenous (p 0.05), a non-parametric test was conducted, followed by the […] test for examining the differences between each dose group and the control group. The difference was considered significant when p<0.05."}, "[4]": {"test_system": "bleomycin-induced lung fibrosis", "assay": "Bleomycin induced IPF mouse model, Example 2 (oral itraconazole, nintedanib or combination)", "type": "in vivo, C57BL/6 mice", "experimental": "The animals in the Control group were administered intratracheally with PBS at a dose of 2 mL/kg while the others were administered intratracheally with bleomycin (Cat #HY-17565, MCE) at a dose of 0.66 mg/kg. On Day 5, the mice with bleomycin treatment were divided into four groups at random (referred to as Group 2-5, n=10), and orally administered with vehicle (DMSO: PEG400=1:[…]), itraconazole ([…] Co. Ltd. prepared in DMSO/PEG400 with a final concentration of 1.5 mg/mL), nintedanib ([…] Co. […] The mice in the Control group was administered with vehicle (DMSO/PEG400) at a daily dose of 10 mL/kg. Mice body weights were measured and recorded on Day 1, 5, 12, 19 and 21."}, "[5]": {"details": "inhalation at 5, 15 and 50 mg/mL for 3 min/day for 22 days"}, "[6]": {"details": "compared to model group, 15 mg/kg, 60 mg/kg, 15+60 mg/kg p.o. daily"}},
  "note": "For at least one compound, name, drawing or mass did not settle the structure.",
  "data": [
    {"smiles": "CC(=O)N[C@@H](CS)C(=O)O", "note": "[ACC]", "values": [
      {"measurement": "pH", "setting": "[1]", "result": 2.2}
    ]},
    {"smiles": "CCC(C)n1ncn(-c2ccc(N3CCN(c4ccc(OCC5COC(Cn6cncn6)(c6ccc(Cl)cc6Cl)O5)cc4)CC3)cc2)c1=O", "note": "(centres unmarked) [itraconazole]", "values": [
      {"measurement": "fibrotic activity (modified Ashcroft score, stained area for collagen, inflammation and αSMA)", "setting": "[2]; itraconazole alone at 7.5 mg/kg", "result": "significant reduction in fibrotic activity"},
      {"measurement": "fibrotic activity (modified Ashcroft score, stained area for collagen, inflammation and αSMA)", "setting": "[2]; itraconazole alone at 15 mg/kg", "result": "significant reduction in fibrotic activity"},
      {"measurement": "anti-fibrotic activity compared with nintedanib", "setting": "[2]; nintedanib at 60 mg/kg", "result": "comparable if not better than that of nintedanib"},
      {"measurement": "anti-fibrotic activity compared with pirfenidone", "setting": "[2]; pirfenidone at 200 mg/kg", "result": "better than that of pirfenidone"},
      {"measurement": "efficacy against bleomycin induced IPF (overall)", "setting": "[3]; administered via inhalation", "result": "efficacious against bleomycin induced IPF in mice in a dose-proportional fashion"},
      {"measurement": "level of hydroxyproline in the lung tissues", "setting": "[3]; inhalation 15 mg/mL, vs model group, p<0.05~0.01", "result": "decreased significantly"},
      {"measurement": "level of hydroxyproline in the lung tissues", "setting": "[3]; inhalation 50 mg/mL, vs model group, p<0.05~0.01", "result": "decreased significantly"},
      {"measurement": "level of TGF-β1 in the BALF", "setting": "[3]; inhalation at 5 mg/mL, vs model group, p<0.05~0.001", "result": "significantly reduced"},
      {"measurement": "pathological changes of lung tissues (H&E staining)", "setting": "[3]; inhalation at 15 mg/mL", "result": "significantly alleviated the pathological changes"},
      {"measurement": "level of TGF-β1 in the BALF", "setting": "[3]; inhalation at 15 mg/mL, large standard deviation", "result": "trend of decrease"},
      {"measurement": "collagen deposition in the lung tissues (Masson's staining IOD)", "setting": "[3]; inhalation at 15 mg/mL, vs model group", "result": "significantly reduced the collagen deposition"},
      {"measurement": "pathological changes of lung tissues (H&E staining)", "setting": "[3]; inhalation at 50 mg/mL", "result": "significantly alleviated the pathological changes"},
      {"measurement": "collagen deposition in the lung tissues (Masson's staining IOD)", "setting": "[3]; inhalation at 50 mg/mL, vs model group", "result": "significantly reduced the collagen deposition"},
      {"measurement": "level of Col I in the BALF", "setting": "[3]; inhalation at 50 mg/mL, vs model group, p<0.05", "result": "significantly reduced"},
      {"measurement": "level of TGF-β1 in the BALF", "setting": "[3]; inhalation at 50 mg/mL, vs model group, p<0.05~0.001", "result": "significantly reduced"},
      {"measurement": "total number of leukocytes in the BALF", "setting": "[3]; inhalation at 50 mg/ml 3 min/day, vs model group, p<0.05", "result": "significantly inhibited the increase"},
      {"measurement": "collagen deposition in the lungs (Masson's staining IOD)", "setting": "[3]; inhalation at 5, 15, 50 mg/mL", "result": "dose-dependently reduced the collagen deposition"},
      {"measurement": "semi-quantitative Ashcroft Score", "setting": "[3]; inhalation at 5, 15, 50 mg/mL", "result": "dose-dependently reduced the pulmonary fibrosis"},
      {"measurement": "number of lymphocytes and macrophages in the BALF", "setting": "[3]; inhalation at 5, 15, 50 mg/mL for 3 min", "result": "had no effects"},
      {"measurement": "level of TGF-β1 in the BALF", "setting": "[3]; inhalation at 5, 15, 50 mg/mL for 3 min/day for 22 days", "result": "dose-dependently decreased"},
      {"measurement": "neutrophils in the BALF", "setting": "[3]; inhalation at 5, 15, 50 mg/mL for 3 min, p<0.05~0.01", "result": "significantly inhibited the increases"},
      {"measurement": "level of Col I in the BALF", "setting": "[3]; inhalation at 5, 15, 50 mg/mL for 3 min for 22 days", "result": "dose-dependently reduced"},
      {"measurement": "level of hydroxyproline in the lung tissues", "setting": "[3]; [5]", "result": "dose-dependently suppressed"},
      {"measurement": "total number of leukocytes in the BALF", "setting": "[3]; [5]", "result": "reduced the total number of leukocytes in the BALF in a dose dependent manner"},
      {"measurement": "pathological changes of lung tissues (H&E staining)", "setting": "[3]; inhalation dose of 5 mg/mL", "result": "did not alleviate the pathological changes"},
      {"measurement": "efficacy of inhalation compared to oral dosing of the same drug", "setting": "[3]; inhalation vs p.o. 15 mg/kg", "result": "Signs of further improvements"},
      {"measurement": "BALF collagen level", "setting": "[4]; [6]", "result": "reduced"},
      {"measurement": "BALF neutrophil number", "setting": "[4]; [6]", "result": "reduced"},
      {"measurement": "lung inflammation area", "setting": "[4]; [6]", "result": "significantly reduced"},
      {"measurement": "modified Ashcroft score", "setting": "[4]; [6]", "result": "significantly reduced"},
      {"measurement": "α-SMA staining area", "setting": "[4]; [6]", "result": "significantly reduced"},
      {"measurement": "efficacy against IPF (overall)", "setting": "[4]; itraconazole 15 mg/kg p.o., combination 15+60 mg/kg vs mono-therapies", "result": "highly efficacious against IPF"},
      {"measurement": "efficacy compared to nintedanib", "setting": "[4]; itraconazole 15 mg/kg vs nintedanib 60 mg/kg p.o.", "result": "comparable favorably"},
      {"measurement": "mice body weight", "setting": "[4]; itraconazole 15 mg/kg, nintedanib 60 mg/kg, 15+60 mg/kg p.o. daily Day 5-21", "result": "inhibited bleomycin-induced body weight reduction to some extent"}
    ]}
  ]
}
